PubChem BioAssay AID1259424, University of Nebraska Medical Center, 2018
In all, the deposit lists about 14,000 reagents; shown is an unselected part. 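Higher correlation or smaller distance means closer resemblance to KSR1 loss; control wells, including KSR1 knockdowns, recur on many plates.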 Not given: the time to read-out.

Assay: 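Rank knockdowns across the genome by resemblance to the KSR1 depletion profile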 (primary screen)
System: human HCT116 colon cancer cells
Reagents: siRNA pool against human genes, 50 nM
Read-out: 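Six signature mRNAs by branched-DNA multiplex assay, scaled to two housekeeping genes and non-targeting median, log2; matched to mean KSR1 knockdown profile by Pearson correlation and euclidean distance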
Scale: mean correlation with KSR1 profile and KSR1 correlation: higher = expression change more like KSR1 knockdown; mean distance from KSR1 profile: higher = expression change less like KSR1 knockdown

target	mean correlation with KSR1 profile	mean distance from KSR1 profile	KSR1 correlation, replicate 1	KSR1 correlation, replicate 2	KSR1 correlation, replicate 3
SLC7A6OS	0.635	3.03	0.49	0.567	0.453
ADAMTS17 (ADAM metallopeptidase with thrombospondin type 1 motif 17)	-0.616	4.15	-0.574	-0.63	-0.691
CNDP1 (carnosine dipeptidase 1)	0.66	1.34	0.452	0.726	0.598
ARHGEF1 (Rho guanine nucleotide exchange factor 1)	0.729	0.629	0.656	0.468	0.944
NRP2 (neuropilin 2)	-0.57	2.39	-0.78	-0.214	-0.661
PIGR (polymeric immunoglobulin receptor)	0.0739	1.3	0.117	-0.057	0.0699
ERC1 (ELKS/RAB6-interacting/CAST family member 1)	-0.542	2.84	-0.398	-0.59	-0.54
RBP5 (retinol binding protein 5)	0.31	1.9	0.184	0.267	0.316
WNT1 (Wnt family member 1)	-0.186	1.58	-0.318	-0.17	-0.063
HCCS (holocytochrome c synthase)	-0.348	1.34	-0.416	-0.47	-0.351
XPO4 (exportin 4)	0.052	1.88	0.151	-0.124	-0.0818
ARSL (arylsulfatase L)	-0.222	1.83	-0.475	-0.332	0.0342
SPAG7 (sperm associated antigen 7)	-0.579	3	-0.499	-0.414	-0.652
IRF3 (interferon regulatory factor 3)	0.376	1.17	0.87	0.829	-0.351
TCFL5 (transcription factor like 5)	0.954	0.989	0.852	0.904	0.952
VASH1 (vasohibin 1)	-0.605	1.97	-0.286	-0.647	-0.689

2 entries from above in another layout.
{"target":"SLC7A6OS","mean correlation with KSR1 profile":0.635,"mean distance from KSR1 profile":3.03,"KSR1 correlation, replicate 1":0.49,"KSR1 correlation, replicate 2":0.567,"KSR1 correlation, replicate 3":0.453}
{"target":"ADAMTS17 (ADAM metallopeptidase with thrombospondin type 1 motif 17)","mean correlation with KSR1 profile":-0.616,"mean distance from KSR1 profile":4.15,"KSR1 correlation, replicate 1":-0.574,"KSR1 correlation, replicate 2":-0.63,"KSR1 correlation, replicate 3":-0.691}

Additional entries follow.
target	mean correlation with KSR1 profile	mean distance from KSR1 profile	KSR1 correlation, replicate 1	KSR1 correlation, replicate 2	KSR1 correlation, replicate 3
MICA (MHC class I polypeptide-related sequence A)	0.733	1.26	0.807	0.671	0.608
RPS4X (ribosomal protein S4 X-linked)	-0.92	1.48	-0.821	-0.932	-0.836
CNTNAP3 (contactin associated protein family member 3)	0.423	1.29	0.548	0.179	0.398
SLC6A11	-0.421	2.85	-0.324	-0.433	-0.389
HCG9 (HLA complex group 9)	0.633	1.78	0.402	0.649	0.646
NPEPPS (aminopeptidase puromycin sensitive)	0.636	1.52	0.619	0.603	0.63
DHDDS (dehydrodolichyl diphosphate synthase subunit)	-0.169	1.89	-0.0902	0.23	-0.45
TRAF3IP3 (TRAF3 interacting protein 3)	0.153	2.78	-0.128	0.238	0.00375
ALKBH1 (alkB homolog 1, histone H2A dioxygenase)	0.0586	1.55	-0.0974	0.103	0.0297
FEV (FEV transcription factor, ETS family member)	0.249	4.51	0.394	-0.0332	0.258
DGLUCY (D-glutamate cyclase)	0.0667	1.62	0.0176	-0.285	-0.0914
KIF11 (kinesin family member 11)	0.0987	2.05	0.111	0.00513	0.0887
PDCD6 (programmed cell death 6)	-0.0269	2.13	-0.0919	-0.1	-0.154
CEACAM19 (CEA cell adhesion molecule 19)	0.369	2.59	0.661	0.161	0.153
IQCB1 (IQ motif containing B1)	-0.789	2.36	-0.605	-0.847	-0.567
H1-5 (H1.5 linker histone, cluster member)	-0.511	2.73	-0.561	-0.275	-0.592
ERVW-1 (endogenous retrovirus group W member 1, envelope)	0.192	1.51	-0.232	-0.153	0.0954
BLM (BLM RecQ like helicase)	0.171	1.42	0.184	0.187	-0.0374
RPL10A (ribosomal protein L10a)	-0.0203	4.23	0.0907	0.0011	-0.129
TAS2R10 (taste 2 receptor member 10)	0.628	1.69	0.612	0.673	0.702
UQCRC2 (ubiquinol-cytochrome c reductase core protein 2)	-0.42	2.82	-0.314	-0.699	-0.3
SMARCA2	0.266	0.846	0.325	-0.0413	0.368
CCDC74A (coiled-coil domain containing 74A)	0.564	2.88	0.684	0.393	0.397
TRAF6 (TNF receptor associated factor 6)	-0.0976	1.65	-0.367	-0.0449	-0.319
HTRA2 (HtrA serine peptidase 2)	0.631	1.33	0.515	0.648	0.401
JTB (jumping translocation breakpoint)	-0.484	2.46	-0.278	-0.762	-0.225
PDIK1L (PDLIM1 interacting kinase 1 like)	-0.423	2.44	-0.328	-0.424	-0.498
MFAP3L (microfibril associated protein 3 like)	-0.396	2.69	-0.413	-0.384	-0.255
FAXDC2 (fatty acid hydroxylase domain containing 2)	0.28	1.34	0.283	0.308	0.281
SLA2 (Src like adaptor 2)	0.0827	2.58	-0.0113	-0.0567	0.235
TAS2R4 (taste 2 receptor member 4)	0.782	0.953	0.694	0.9	0.837
ZNF277 (zinc finger protein 277)	-0.538	2.31	-0.512	-0.551	-0.535
TFCP2 (transcription factor CP2)	-0.242	2.39	-0.291	-0.0344	0.0838
PIK3C2B	0.645	2.16	0.806	0.548	0.501
